From patent US20250313563A1, “GLYCOGEN SYNTHASE KINASE 3 INHIBITORS AND USES THEREOF” (The Broad Institute, Inc., priority 2022, published 2025) come the findings set out here.

The source holds more than one record for some entries. This list holds those alone. There may be further records. The values listed for one entry do not match, cause unknown; dose, time, organism, isomer or construct need not be as stated for each record.

The series concerns MDR1-MDCK cell monolayers. The experiment in a line: MDR1/MDCK assay (blood-brain barrier penetration potential). The following applies: 5 μM, pH 7.4, 120 minutes, B to A.

As for `CC(C)(C)Cc1[nH]nc2c1C1(CN(S(=O)(=O)c3ccccc3)C1)C1=C(CC(C)(C)CC1=O)N2`, the “MDCK permeability (MDR1-MDCK); Mean; Papp (B − A)” value was 24.75 10^−6 cm/s and 6.52 10^−6 cm/s.
Regarding `CC(C)(C)Cc1[nH]nc2c1[C@](C)(c1cccc(S(=O)(=O)CC3CC3)c1)C1=C(CC(C)(C)NC1=O)N2`, the “MDCK permeability (MDR1-MDCK); Mean; Papp (B − A)” value was 16.31 10^−6 cm/s and 6.17 10^−6 cm/s.
